± gives the standard deviation of the averaged measurements. This is a selection; strong and weak results do not stand in their true shares.
Compound: Nc1ncnc2c1ncn2[C@@H]1O[C@H](COP(=O)(O)OP(=O)(O)NP(=O)(O)O)[C@@H](O)[C@H]1O [adenylyl imidodiphosphate]
Assay: NP40-soluble protein abundance relative to vehicle (solubility fold change) (ratio); higher = more soluble protein in presence of AMP-PNP
How it was run: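 Across three independent experiments, values are fold changes against the detergent-processed vehicle for each replicate, based on vsn-normalised intensities. The samples were Jurkat crude lysate treated with eight concentrations (0.1 to 10 mM) for 10 min at room temperature and then 3 min at 37 °C. Lysate was solubilised with 0.8% NP40 and benzonase, ultracentrifuged, and the supernatant analysed by TMT-labelled LC-MS/MS.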

Protein sequences, listed by entry. Tags and fused reporters are not part of them. Lines headed by an entry give the natural chain unless they say otherwise; changes in a name come on top.
UniProt Q6DKK2: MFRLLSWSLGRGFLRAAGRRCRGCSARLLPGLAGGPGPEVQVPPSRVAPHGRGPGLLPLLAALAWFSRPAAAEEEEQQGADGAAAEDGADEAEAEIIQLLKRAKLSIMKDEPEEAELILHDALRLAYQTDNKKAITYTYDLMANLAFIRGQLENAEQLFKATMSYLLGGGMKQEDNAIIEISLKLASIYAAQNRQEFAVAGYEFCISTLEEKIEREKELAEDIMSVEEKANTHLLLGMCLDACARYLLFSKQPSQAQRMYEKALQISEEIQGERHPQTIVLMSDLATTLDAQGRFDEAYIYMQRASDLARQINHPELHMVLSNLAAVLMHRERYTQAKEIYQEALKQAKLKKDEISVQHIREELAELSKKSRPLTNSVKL
UniProt Q7Z5L9: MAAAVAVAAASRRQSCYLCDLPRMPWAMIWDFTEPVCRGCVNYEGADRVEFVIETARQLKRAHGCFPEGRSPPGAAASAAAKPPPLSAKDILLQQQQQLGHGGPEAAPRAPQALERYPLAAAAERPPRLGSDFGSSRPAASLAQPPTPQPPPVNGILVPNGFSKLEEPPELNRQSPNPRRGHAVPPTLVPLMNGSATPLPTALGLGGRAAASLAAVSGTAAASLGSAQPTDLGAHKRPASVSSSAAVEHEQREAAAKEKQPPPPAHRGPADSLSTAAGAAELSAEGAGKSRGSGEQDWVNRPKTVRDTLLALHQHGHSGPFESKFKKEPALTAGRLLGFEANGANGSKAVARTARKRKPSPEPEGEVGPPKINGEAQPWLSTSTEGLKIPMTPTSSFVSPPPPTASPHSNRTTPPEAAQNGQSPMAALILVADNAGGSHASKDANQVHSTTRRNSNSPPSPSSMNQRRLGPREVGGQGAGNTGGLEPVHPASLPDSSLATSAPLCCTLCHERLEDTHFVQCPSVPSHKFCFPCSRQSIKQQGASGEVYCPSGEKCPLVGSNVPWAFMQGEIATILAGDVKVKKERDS
UniProt Q6DKJ4: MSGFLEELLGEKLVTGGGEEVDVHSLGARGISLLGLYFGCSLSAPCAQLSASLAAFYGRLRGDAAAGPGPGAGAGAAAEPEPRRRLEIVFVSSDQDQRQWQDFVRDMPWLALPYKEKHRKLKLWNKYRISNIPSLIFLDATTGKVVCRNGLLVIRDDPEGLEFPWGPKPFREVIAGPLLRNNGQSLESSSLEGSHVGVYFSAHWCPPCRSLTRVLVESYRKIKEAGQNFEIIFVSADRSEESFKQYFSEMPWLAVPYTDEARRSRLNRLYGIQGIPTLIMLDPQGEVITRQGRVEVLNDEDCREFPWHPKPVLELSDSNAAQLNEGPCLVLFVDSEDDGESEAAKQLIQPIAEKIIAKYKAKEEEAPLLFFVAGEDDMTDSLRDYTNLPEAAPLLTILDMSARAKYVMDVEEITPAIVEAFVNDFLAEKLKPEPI
UniProt Q641Q2, whole entry: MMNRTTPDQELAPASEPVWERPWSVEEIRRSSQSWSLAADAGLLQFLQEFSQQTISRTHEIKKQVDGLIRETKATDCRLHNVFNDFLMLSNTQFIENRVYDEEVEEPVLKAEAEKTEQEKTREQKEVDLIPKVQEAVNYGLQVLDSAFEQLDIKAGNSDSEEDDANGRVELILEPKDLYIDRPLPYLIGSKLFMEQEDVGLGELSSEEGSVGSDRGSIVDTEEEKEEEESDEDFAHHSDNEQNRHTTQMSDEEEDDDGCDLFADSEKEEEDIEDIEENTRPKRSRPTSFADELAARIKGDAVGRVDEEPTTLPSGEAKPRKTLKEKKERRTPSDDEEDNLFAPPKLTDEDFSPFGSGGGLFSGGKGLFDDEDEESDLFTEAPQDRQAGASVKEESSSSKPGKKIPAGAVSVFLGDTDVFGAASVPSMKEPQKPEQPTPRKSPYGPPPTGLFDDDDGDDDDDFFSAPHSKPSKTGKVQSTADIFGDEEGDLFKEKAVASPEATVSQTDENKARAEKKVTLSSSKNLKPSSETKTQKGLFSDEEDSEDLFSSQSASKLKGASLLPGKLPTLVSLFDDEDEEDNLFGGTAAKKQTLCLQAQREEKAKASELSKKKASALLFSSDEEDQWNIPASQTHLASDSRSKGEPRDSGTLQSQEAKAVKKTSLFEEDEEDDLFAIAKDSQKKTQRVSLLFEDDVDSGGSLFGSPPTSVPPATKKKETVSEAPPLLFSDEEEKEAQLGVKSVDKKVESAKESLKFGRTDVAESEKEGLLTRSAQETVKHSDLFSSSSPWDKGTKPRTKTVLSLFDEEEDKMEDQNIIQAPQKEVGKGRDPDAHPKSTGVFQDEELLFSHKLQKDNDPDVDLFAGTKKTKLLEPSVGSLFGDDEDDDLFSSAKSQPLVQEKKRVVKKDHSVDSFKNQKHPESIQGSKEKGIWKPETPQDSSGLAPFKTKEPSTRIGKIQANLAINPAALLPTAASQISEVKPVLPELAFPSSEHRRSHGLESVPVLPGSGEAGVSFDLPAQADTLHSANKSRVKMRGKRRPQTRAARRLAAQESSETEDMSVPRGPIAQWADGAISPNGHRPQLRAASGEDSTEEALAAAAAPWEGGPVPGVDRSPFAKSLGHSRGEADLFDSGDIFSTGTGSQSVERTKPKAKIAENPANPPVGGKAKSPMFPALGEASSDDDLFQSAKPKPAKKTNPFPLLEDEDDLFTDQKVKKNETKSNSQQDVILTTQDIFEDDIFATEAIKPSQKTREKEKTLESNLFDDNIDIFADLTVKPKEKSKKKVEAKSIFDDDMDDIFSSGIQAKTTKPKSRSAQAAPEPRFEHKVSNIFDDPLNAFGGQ
UniProt Q6RFH5: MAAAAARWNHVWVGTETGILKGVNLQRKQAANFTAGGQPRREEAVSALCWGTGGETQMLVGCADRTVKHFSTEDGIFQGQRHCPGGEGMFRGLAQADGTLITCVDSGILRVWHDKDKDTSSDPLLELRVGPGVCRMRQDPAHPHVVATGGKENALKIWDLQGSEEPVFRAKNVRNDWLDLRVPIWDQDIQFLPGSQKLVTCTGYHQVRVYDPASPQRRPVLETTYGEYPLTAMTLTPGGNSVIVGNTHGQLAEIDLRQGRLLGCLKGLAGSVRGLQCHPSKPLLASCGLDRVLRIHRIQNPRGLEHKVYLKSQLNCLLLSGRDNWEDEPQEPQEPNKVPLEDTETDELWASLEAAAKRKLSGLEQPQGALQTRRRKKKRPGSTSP
UniProt Q7LBC6: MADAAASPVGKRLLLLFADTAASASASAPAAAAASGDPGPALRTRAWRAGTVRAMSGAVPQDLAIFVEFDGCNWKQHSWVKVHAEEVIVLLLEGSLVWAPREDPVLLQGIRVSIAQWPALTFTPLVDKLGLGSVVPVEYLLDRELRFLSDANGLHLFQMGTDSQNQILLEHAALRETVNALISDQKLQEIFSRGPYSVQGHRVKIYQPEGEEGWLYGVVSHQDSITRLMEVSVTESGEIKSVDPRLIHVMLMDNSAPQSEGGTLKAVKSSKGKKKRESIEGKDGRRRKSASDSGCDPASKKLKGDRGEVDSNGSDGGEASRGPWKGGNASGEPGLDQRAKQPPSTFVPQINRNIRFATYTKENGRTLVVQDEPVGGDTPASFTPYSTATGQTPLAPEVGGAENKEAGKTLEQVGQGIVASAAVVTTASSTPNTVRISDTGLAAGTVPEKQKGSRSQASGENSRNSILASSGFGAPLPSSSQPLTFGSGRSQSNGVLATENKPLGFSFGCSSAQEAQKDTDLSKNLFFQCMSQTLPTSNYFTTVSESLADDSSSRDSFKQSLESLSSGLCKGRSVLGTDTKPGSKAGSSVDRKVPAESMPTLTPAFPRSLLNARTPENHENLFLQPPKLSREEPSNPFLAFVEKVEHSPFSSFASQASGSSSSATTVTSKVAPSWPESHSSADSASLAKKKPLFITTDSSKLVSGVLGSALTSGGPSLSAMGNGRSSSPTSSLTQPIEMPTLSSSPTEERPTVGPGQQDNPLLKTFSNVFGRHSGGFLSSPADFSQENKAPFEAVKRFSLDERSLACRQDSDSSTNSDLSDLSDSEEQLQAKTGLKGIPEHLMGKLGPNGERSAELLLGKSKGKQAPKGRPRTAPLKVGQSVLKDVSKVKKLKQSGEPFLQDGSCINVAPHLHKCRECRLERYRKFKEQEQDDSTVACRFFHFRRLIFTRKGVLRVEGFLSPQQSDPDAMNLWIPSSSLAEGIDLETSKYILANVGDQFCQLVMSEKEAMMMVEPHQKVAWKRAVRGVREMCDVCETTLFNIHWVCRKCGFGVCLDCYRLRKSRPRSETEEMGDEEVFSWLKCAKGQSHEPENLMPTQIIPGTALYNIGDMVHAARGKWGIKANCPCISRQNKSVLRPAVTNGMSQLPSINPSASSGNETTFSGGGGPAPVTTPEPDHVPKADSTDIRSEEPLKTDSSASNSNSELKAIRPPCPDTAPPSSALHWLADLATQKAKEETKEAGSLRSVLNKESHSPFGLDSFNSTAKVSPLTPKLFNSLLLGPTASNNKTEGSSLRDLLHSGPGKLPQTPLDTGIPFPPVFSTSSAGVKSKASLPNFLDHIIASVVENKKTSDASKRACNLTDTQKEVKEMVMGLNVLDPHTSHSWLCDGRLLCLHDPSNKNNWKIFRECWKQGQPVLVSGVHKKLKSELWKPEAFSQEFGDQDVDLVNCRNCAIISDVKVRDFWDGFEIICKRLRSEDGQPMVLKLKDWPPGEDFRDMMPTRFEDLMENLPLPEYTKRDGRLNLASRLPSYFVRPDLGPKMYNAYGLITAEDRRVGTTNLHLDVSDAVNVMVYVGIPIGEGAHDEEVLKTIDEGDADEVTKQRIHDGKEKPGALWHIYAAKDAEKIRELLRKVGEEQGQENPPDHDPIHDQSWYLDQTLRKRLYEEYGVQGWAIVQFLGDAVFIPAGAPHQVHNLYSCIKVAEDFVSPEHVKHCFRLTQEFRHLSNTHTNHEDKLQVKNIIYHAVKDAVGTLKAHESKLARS
UniProt Q5VVQ6: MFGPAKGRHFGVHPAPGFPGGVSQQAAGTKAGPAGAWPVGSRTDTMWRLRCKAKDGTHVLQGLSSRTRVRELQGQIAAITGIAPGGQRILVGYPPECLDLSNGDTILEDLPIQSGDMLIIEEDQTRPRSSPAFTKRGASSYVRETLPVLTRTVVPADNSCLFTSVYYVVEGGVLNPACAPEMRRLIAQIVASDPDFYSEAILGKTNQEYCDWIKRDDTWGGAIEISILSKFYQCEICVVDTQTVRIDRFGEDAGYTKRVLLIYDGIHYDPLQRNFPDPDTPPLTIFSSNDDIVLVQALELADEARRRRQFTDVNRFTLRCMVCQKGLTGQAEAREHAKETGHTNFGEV
UniProt Q5VVJ2: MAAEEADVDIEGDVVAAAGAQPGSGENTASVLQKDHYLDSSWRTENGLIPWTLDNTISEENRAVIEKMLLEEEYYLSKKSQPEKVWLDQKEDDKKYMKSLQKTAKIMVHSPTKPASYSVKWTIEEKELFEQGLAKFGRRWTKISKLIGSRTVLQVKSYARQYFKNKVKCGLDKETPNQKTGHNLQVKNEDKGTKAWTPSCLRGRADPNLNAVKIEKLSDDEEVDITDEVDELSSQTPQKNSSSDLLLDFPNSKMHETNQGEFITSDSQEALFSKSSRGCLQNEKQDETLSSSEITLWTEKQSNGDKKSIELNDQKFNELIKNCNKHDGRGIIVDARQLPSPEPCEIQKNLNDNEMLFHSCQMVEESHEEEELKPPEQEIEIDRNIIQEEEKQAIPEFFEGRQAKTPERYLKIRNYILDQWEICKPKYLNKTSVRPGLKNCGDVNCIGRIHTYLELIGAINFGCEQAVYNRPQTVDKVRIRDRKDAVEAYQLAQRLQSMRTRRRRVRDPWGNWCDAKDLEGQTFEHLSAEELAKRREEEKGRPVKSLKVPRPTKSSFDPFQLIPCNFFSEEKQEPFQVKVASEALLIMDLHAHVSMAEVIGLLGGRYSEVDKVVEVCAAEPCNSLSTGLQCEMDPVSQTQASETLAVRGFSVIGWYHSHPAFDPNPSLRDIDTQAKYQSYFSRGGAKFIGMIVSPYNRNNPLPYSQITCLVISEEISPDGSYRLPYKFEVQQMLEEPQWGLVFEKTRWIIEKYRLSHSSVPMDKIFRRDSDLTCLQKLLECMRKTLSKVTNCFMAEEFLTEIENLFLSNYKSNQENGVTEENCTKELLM
UniProt Q6IPR3: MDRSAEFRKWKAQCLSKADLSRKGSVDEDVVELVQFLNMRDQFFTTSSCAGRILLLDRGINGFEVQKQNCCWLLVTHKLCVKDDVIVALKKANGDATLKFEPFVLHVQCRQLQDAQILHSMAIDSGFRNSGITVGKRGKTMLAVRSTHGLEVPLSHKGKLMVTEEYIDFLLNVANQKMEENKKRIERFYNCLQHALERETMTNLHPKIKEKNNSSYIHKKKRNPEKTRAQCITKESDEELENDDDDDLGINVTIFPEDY
UniProt Q6GMV3: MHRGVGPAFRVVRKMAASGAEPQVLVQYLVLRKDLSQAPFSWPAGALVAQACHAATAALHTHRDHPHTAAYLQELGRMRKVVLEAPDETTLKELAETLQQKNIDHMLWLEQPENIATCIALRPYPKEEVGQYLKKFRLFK

Target	NP40-soluble protein abundance (concentration: 1mM)	NP40-soluble protein abundance (concentration: 2mM)	NP40-soluble protein abundance (concentration: 4mM)	NP40-soluble protein abundance (concentration: 6mM)	NP40-soluble protein abundance (concentration: 8mM)	NP40-soluble protein abundance (concentration: 10mM)
TTC19 (UniProt Q6DKK2)	0.987 ± 0.058	1.02 ± 0.036	0.98 ± 0.086	0.948 ± 0.056	0.957 ± 0.015	0.88 ± 0.065
UniProt Q6P2P2	1.04 ± 0.022	1.01 ± 0.093	1.01 ± 0.038	0.966 ± 0.049	0.988 ± 0.039	1 ± 0.036
UniProt Q6IE81 and related entries	1.025 ± 0.0047	1.037 ± 0.0033	1.02 ± 0.022	1.05 ± 0.039	1.024 ± 0.002	1.056 ± 0.0095
DUS1L (UniProt Q6P1R4)	1.03 ± 0.043	1.05 ± 0.057	1.01 ± 0.053	1.03 ± 0.061	1 ± 0.022	1.02 ± 0.058
PRPF8 (UniProt Q6P2Q9)	0.989 ± 0.039	0.892 ± 0.15	0.979 ± 0.085	0.966 ± 0.098	1.05 ± 0.13	1.02 ± 0.16
UniProt Q6P1A2 and related entries	1 ± 0.03	0.987 ± 0.048	0.9794 ± 0.00067	0.9868 ± 0.0093	0.997 ± 0.029	0.997 ± 0.019
UniProt Q7Z5L9 and related entries	1.01 ± 0.022	1.04 ± 0.035	1.01 ± 0.028	0.982 ± 0.033	0.978 ± 0.056	0.961 ± 0.047
UniProt Q7L099-2|Q7L099-3|Q7L099-4	1.03 ± 0.029	1.05 ± 0.064	0.9971 ± 0.0018	0.976 ± 0.017	0.919 ± 0.027	0.965 ± 0.037
Q5VY60 and related entries (UniProt Q7Z4H7)	1.04 ± 0.011	1.02 ± 0.055	1.01 ± 0.028	1.02 ± 0.032	1.02 ± 0.034	1.02 ± 0.027
UniProt Q7L2H7	1 ± 0.021	1 ± 0.085	1.04 ± 0.13	1.25 ± 0.15	1.3 ± 0.15	1.33 ± 0.24
DHX57 (UniProt Q6P158)	1.02 ± 0.024	1.03 ± 0.053	1.05 ± 0.044	1.03 ± 0.023	1.02 ± 0.012	1.02 ± 0.017
CYFIP1 (UniProt Q7L576)	0.969 ± 0.041	0.874 ± 0.072	0.973 ± 0.025	0.946 ± 0.039	1.02 ± 0.069	0.946 ± 0.081
UniProt Q6PJG6	0.987 ± 0.047	1 ± 0.037	0.977 ± 0.053	0.954 ± 0.052	0.924 ± 0.065	0.938 ± 0.091
UniProt Q684P5-2|Q684P5-3|Q684P5	1 ± 0.035	1 ± 0.024	0.997 ± 0.051	0.977 ± 0.029	0.963 ± 0.048	0.968 ± 0.026
CENPQ (UniProt Q7L2Z9)	0.986 ± 0.041	0.966 ± 0.057	0.968 ± 0.044	0.941 ± 0.045	0.905 ± 0.041	0.939 ± 0.026
NXN (UniProt Q6DKJ4)	0.99 ± 0.063	0.969 ± 0.042	0.978 ± 0.019	0.978 ± 0.046	1.03 ± 0.058	0.994 ± 0.025
UniProt Q7L523	1.05 ± 0.037	0.989 ± 0.033	1.06 ± 0.05	1.01 ± 0.04	1.09 ± 0.051	1.007 ± 0.00089

Quoted from the listing.
UniProt Q7L099-2|Q7L099-3|Q7L099-4 – NP40-soluble protein abundance (concentration: 1mM): 1.03 ± 0.029
TTC19 (UniProt Q6DKK2) – NP40-soluble protein abundance (concentration: 10mM): 0.88 ± 0.065

(continued)

Target	NP40-soluble protein abundance (concentration: 1mM)	NP40-soluble protein abundance (concentration: 2mM)	NP40-soluble protein abundance (concentration: 4mM)	NP40-soluble protein abundance (concentration: 6mM)	NP40-soluble protein abundance (concentration: 8mM)	NP40-soluble protein abundance (concentration: 10mM)
UniProt Q7Z5G4 and related entries	0.986 ± 0.027	0.999 ± 0.024	0.994 ± 0.03	0.995 ± 0.021	1.02 ± 0.026	0.971 ± 0.051
UniProt Q641Q2 and related entries	1.06 ± 0.034	1.1 ± 0.08	1.03 ± 0.014	1.03 ± 0.049	0.988 ± 0.053	1.04 ± 0.05
SPNS3 (UniProt Q6ZMD2)	1.002 ± 0.0046	0.997 ± 0.017	0.991 ± 0.016	1.01 ± 0.011	1 ± 0.017	0.989 ± 0.025
UniProt Q6RFH5 and related entries	1.01 ± 0.014	0.99 ± 0.015	0.997 ± 0.019	1.01 ± 0.012	1.02 ± 0.013	1.008 ± 0.0061
UniProt Q69YN4	1.04 ± 0.013	1.03 ± 0.036	1.068 ± 0.0095	1.01 ± 0.082	1.02 ± 0.068	1.01 ± 0.06
CEP350 (UniProt Q5VT06)	0.978 ± 0.06	0.989 ± 0.046	1 ± 0.07	0.975 ± 0.024	0.951 ± 0.031	0.967 ± 0.034
UniProt Q6P444	1.007 ± 0.0047	1.03 ± 0.021	1 ± 0.029	1.025 ± 0.0058	0.995 ± 0.016	0.996 ± 0.019
UniProt Q5VWP2	0.9681 ± 0.0066	0.998 ± 0.025	1 ± 0.016	1.01 ± 0.043	0.979 ± 0.041	0.988 ± 0.056
Q5W125 and related entries (UniProt Q9NWW6)	0.97 ± 0.01	0.972 ± 0.02	0.949 ± 0.013	1.022 ± 0.01	0.971 ± 0.017	0.93318 ± 6.6e-05
CWF19L1 (UniProt Q69YN2)	0.9932 ± 0.0026	0.959 ± 0.054	1.004 ± 0.0053	1.02 ± 0.022	1.02 ± 0.028	1.01 ± 0.017
UniProt Q7LBC6	1.01 ± 0.027	1.03 ± 0.041	1.01 ± 0.013	0.991 ± 0.026	0.962 ± 0.012	0.995 ± 0.017
UniProt Q5VVQ6 and related entries	0.976 ± 0.028	0.947 ± 0.032	1.02 ± 0.013	0.977 ± 0.013	0.993 ± 0.016	0.967 ± 0.032
MYSM1 (UniProt Q5VVJ2)	0.978 ± 0.045	0.963 ± 0.037	0.968 ± 0.038	0.957 ± 0.04	0.951 ± 0.018	0.94 ± 0.072
TYW3 (UniProt Q6IPR3)	0.998 ± 0.048	0.982 ± 0.032	1 ± 0.081	1 ± 0.042	1.02 ± 0.041	0.998 ± 0.045
UniProt Q6P1J9	0.9892 ± 0.0083	0.957 ± 0.039	0.988 ± 0.036	0.985 ± 0.024	0.986 ± 0.025	0.955 ± 0.025
UniProt Q6GMV3	0.9658 ± 0.0019	0.97 ± 0.029	0.907 ± 0.037	0.875 ± 0.042	0.872 ± 0.016	0.819 ± 0.031
UniProt Q5VZL5 and related entries	1.05 ± 0.023	1.1 ± 0.026	1.1 ± 0.017	1.17 ± 0.089	1.17 ± 0.1	1.24 ± 0.12

From the supplement of paper PMC6411743
